Measurements reported in PubChem BioAssay AID602196 (INSERM, 2012)
Aim: 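Modifiers of cisplatin sensitivity in A549 cells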. System: human A549 lung cancer cells. Knock-down reagent: siRNA pair against human genes. Time to read-out: 48 h transfection before cisplatin; time from cisplatin to read-out not stated. Challenge: cisplatin at a dose killing half of control-siRNA cells; exact dose and duration not given. Detection: 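Shift in cisplatin death relative to control siRNA, from -50 (all cells die) to +50 (no cells die); siRNAs harmful on their own scored 0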. Reading the numbers: two-siRNA summed score (-2 to +2): higher = both siRNAs protect from cisplatin killing; -2 means both sensitise. Active means: 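Each siRNA scores 0 if harmful alone by LDH or WST-1, otherwise +1 if it reduces and -1 if it increases cisplatin killing; a gene is active when both siRNAs agree (sum +2 or -2)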. Meaning of the calls: active = both siRNAs shift cisplatin killing the same way; inactive = no consistent shift, or siRNA harmful alone.
Here is an unselected part of about 23,000 reagents. In the full data, 455 (2%) were called active. 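Active includes both protection and sensitisation; some change values fall well beyond the stated -50 to +50 range.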 Entries without a mark were called inactive. Further read-outs or replicates are left out here. Not stated in the record: the amount of reagent.

With HOXA13 (homeobox A13), what does the deposit list?
two-siRNA summed score (-2 to +2): 0

For BSDC1 (BSD domain containing 1), what does the deposit list?
two-siRNA summed score (-2 to +2): 0

With CHMP1B (charged multivesicular body protein 1B), what does the deposit list?
two-siRNA summed score (-2 to +2): 0

What is on record for FAM124B (family with sequence similarity 124 member B)?
two-siRNA summed score (-2 to +2): 0

Which result is listed for EPB41 (erythrocyte membrane protein band 4.1)?
two-siRNA summed score (-2 to +2): 0

For APC2 (APC regulator of Wnt signaling pathway 2), what does the deposit list?
two-siRNA summed score (-2 to +2): -1

With MTFR1 (mitochondrial fission regulator 1), what was measured?
two-siRNA summed score (-2 to +2): 1

How did the screen score CA9 (carbonic anhydrase 9)?
two-siRNA summed score (-2 to +2): -1

For CPNE1 (copine 1), how do the results read?
two-siRNA summed score (-2 to +2): 0

For BAZ1A (bromodomain adjacent to zinc finger domain 1A), what was measured?
two-siRNA summed score (-2 to +2): -1

For SLC67A1, how do the results read?
two-siRNA summed score (-2 to +2): 0

With BPIFA2 (BPI fold containing family A member 2), what was measured?
two-siRNA summed score (-2 to +2): 0

Which result is listed for FLOT1 (flotillin 1)?
two-siRNA summed score (-2 to +2): 0

What did the screen give for ZNF384 (zinc finger protein 384)?
two-siRNA summed score (-2 to +2): 0

How did the screen score MTRFR (mitochondrial translation release factor in rescue)?
two-siRNA summed score (-2 to +2): 0

With LOC388623, how do the results read?
two-siRNA summed score (-2 to +2): 0

With WAC-AS1 (WAC antisense RNA 1), what was measured?
two-siRNA summed score (-2 to +2): 0

A stretch of the results above:
FAM124B (family with sequence similarity 124 member B) — two-siRNA summed score (-2 to +2): 0
EPB41 (erythrocyte membrane protein band 4.1) — two-siRNA summed score (-2 to +2): 0
APC2 (APC regulator of Wnt signaling pathway 2) — two-siRNA summed score (-2 to +2): -1
MTFR1 (mitochondrial fission regulator 1) — two-siRNA summed score (-2 to +2): 1
CA9 (carbonic anhydrase 9) — two-siRNA summed score (-2 to +2): -1
CPNE1 (copine 1) — two-siRNA summed score (-2 to +2): 0

Next results follow:
Which result is listed for PCP4 (Purkinje cell protein 4)?
two-siRNA summed score (-2 to +2): 1

With FAM30A (family with sequence similarity 30 member A), what does the deposit list?
two-siRNA summed score (-2 to +2): 1

Which result is listed for TNIK (TRAF2 and NCK interacting kinase)?
two-siRNA summed score (-2 to +2): 1

For FGF5 (fibroblast growth factor 5), how do the results read?
two-siRNA summed score (-2 to +2): 0

For UQCRC1 (ubiquinol-cytochrome c reductase core protein 1), how do the results read?
two-siRNA summed score (-2 to +2): 0

What did the screen give for ZC3HAV1L (ZC3HAV1 like)?
two-siRNA summed score (-2 to +2): 0

How did the screen score RUNDC3A (RUN domain containing 3A)?
two-siRNA summed score (-2 to +2): 0

What did the screen give for SERPINB1 (serpin family B member 1)?
two-siRNA summed score (-2 to +2): 0

What is on record for OR8B3 (olfactory receptor family 8 subfamily B member 3)?
two-siRNA summed score (-2 to +2): 0

For AASS (aminoadipate-semialdehyde synthase), what does the deposit list?
two-siRNA summed score (-2 to +2): -1

What did the screen give for SLC5A12?
two-siRNA summed score (-2 to +2): 0

With TRPM3, what was measured?
two-siRNA summed score (-2 to +2): 0

What did the screen give for KATNA1 (katanin catalytic subunit A1)?
two-siRNA summed score (-2 to +2): 0

For NDUFB11 (NADH:ubiquinone oxidoreductase subunit B11), what was measured?
two-siRNA summed score (-2 to +2): 0

With MRPS18A (mitochondrial ribosomal protein S18A), what was measured?
two-siRNA summed score (-2 to +2): 0

For E2F4 (E2F transcription factor 4), what was measured?
two-siRNA summed score (-2 to +2): 0

With MOB3A (MOB kinase activator 3A), what was measured?
two-siRNA summed score (-2 to +2): 0

With OTOGL (otogelin like), what was measured?
two-siRNA summed score (-2 to +2): 0

What is on record for SOS1 (SOS Ras/Rac guanine nucleotide exchange factor 1)?
two-siRNA summed score (-2 to +2): 0

For TMPRSS15 (transmembrane serine protease 15), what was measured?
two-siRNA summed score (-2 to +2): 0

For SNHG29 (small nucleolar RNA host gene 29), what was measured?
two-siRNA summed score (-2 to +2): 0

What did the screen give for EFNA2 (ephrin A2)?
two-siRNA summed score (-2 to +2): 0

What is on record for AKT2 (AKT serine/threonine kinase 2)?
two-siRNA summed score (-2 to +2): 0
